Hit rate of the full screen: of about 31,000 sequences, about 1,400 (4.5%) were called active.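 Rule for the calls: active = median seed-adjusted z-score above 1 or below -1; inactive = the rest.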 The list shows a part of the results.
Test: Novel Modifiers of Survival Motor Neuron (SMN) Protein: Gene Identification via Genome-wide siRNA Screen;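 note: luminescence tracks full-length SMN protein made from the SMN2 reporter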
Details: HEK293T SMN2-luciferase reporter, siRNA knockdown, 72 h; actives lie on both sides
How it was run: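 siRNA screen, 10418 genes ×3 siRNAs; 1 pmol/well, lipid reverse transfection into HEK293T SMN2-luc reporter line. 72 h, 37 °C, 5% CO2; ONE-Glo readout. Data: neg-ctrl normalized, log10, MAD; hit = MAD >1.0 or < -1.0.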

Row | Sequence | median seed-adjusted z-score
1 | GUAUGUCGCAGUAAACAAATT against DYNLL2 | inactive: -0.201
2 | GCUUAUAGUUACUAUCAUUTT against CRLS1 | inactive: 0.555
3 | GUAUCGAUAUUAGAGAAGATT against HESX1 | inactive: 0.3
4 | CCUUCAACCUUAUGAGGUUTT against ZNF404 | inactive: 0.574
5 | CGGUGAUGUUUGUAGCCUATT against TACR2 | inactive: 0.201
6 | UCAUAUUCAGCAGAAUGAATT against TIMM9 | inactive: -0.371
7 | CCACUUCUCGGAAAACCCATT against SLC10A3 | inactive: -0.25
8 | GCUUGUCCCGAGAUGUUUATT against RET | inactive: -0.931
9 | GUACUGUGAUAAGAUGUUUTT against PLAGL2 | inactive: 0.0744
10 | GAUCAAUGGUUAUCGAAUUTT against COL14A1 | inactive: 0.19
11 | GGUCGAAUUUUGGGUAUUATT against CBLB | inactive: 0
12 | GAAUUUCCGUGUGGAUGUATT against POLR1C | inactive: -0.0299
13 | CCAUGAACAUCUUUGUCUATT against BCAT2 | inactive: 0.0438
14 | CUGUCAACCUUGAAGUUCATT against MORC1 | inactive: -0.719
15 | CAACAGACCUACGAGCAAATT against BANK1 | inactive: 0.962
16 | GCUGGAAUCUAACAAUAGATT against ROCK2 | inactive: -0.149
17 | CGUCUUCAGCUGUUUCGCATT against SOD3 | inactive: -0.0691
18 | GACAUCCCGUUGUACCUGATT against COX7A1 | inactive: -0.47
19 | GCAUUUAUGGGAAUGCUGATT against PTGR1 | inactive: 0
20 | GCUCAACAUCUGUAGAUCATT against ITSN1 | inactive: 0.00218
21 | AGAGCAUAUUGAUGAGAGATT against MTHFD2 | inactive: -0.146
22 | CAUCCACACUGCAAUGAUATT against PILRB | inactive: 0.0351

Row | Sequence | median seed-adjusted z-score
23 | GAAGUAAUCUGCACAGGGATT against LRRC52 | inactive: 0.118
24 | CCGCGGAACUGUUUGUGGATT against POLE4 | inactive: -0.0404
25 | CACUGUCAGUUGCAAUAUUTT against FGB | inactive: 0.481
26 | GCAUCUAUACAGUCAAGGATT against EPDR1 | inactive: 0.369
27 | GCAGUGUGGUCAGUACCUUTT against RSAD1 | inactive: -0.269
28 | AGGCUGUUGUCGUCACAAATT against PRPS2 | inactive: 0.389
29 | GGUUAGAAGAGGUGUCUAATT against NUMB | inactive: -0.599
30 | GGACACUACAAUAAGUAUATT against ATP6V1G3 | inactive: 0.489
31 | GUAUAGGUGAUAAUCGAGATT against LANCL1 | inactive: 0
32 | CGAAAACGAUUCCCUCUAATT against SOX30 | inactive: -0.167
33 | UUAUGUUUAUGGAAUGAAATT against SLC6A18 | inactive: 0.148
34 | AAGACCACAUGAUCCGUAATT against SCNN1B | inactive: 0.585
35 | GAACUUCCCUUAAGAGUCATT against MUC4 | inactive: 0.128
36 | GGGUCACAGGUUGGAAAGATT against ACBD4 | inactive: -0.363
37 | GGAUUAUCUGCACUCCGAATT against STK25 | inactive: -0.0703
38 | CAAUCUAUUAAGAAAUGUUTT against RPE | inactive: 0.616
39 | CUAUAGGAAUGUUGAAUAATT against WDR33 | active: 3.27
40 | GACCUCACCUAGAAAUUGATT against TNF | inactive: -0.138
41 | CAACAACUGCUACCAAGAUTT against SLC6A4 | active: 1.43
42 | CAGCAUUCUUUAUCUCGUATT against FZD3 | inactive: -0.0208
43 | AGAUUGUCCUCAACUUCAATT against NRP2 | inactive: 0.477
44 | GCGUAUCUUUGAUAGUGAATT against NARS | inactive: -0.361

Shown as comma-separated lines: part of the list above.
Row,Sequence,median seed-adjusted z-score
18,GACAUCCCGUUGUACCUGATT against COX7A1,inactive: -0.47
19,GCAUUUAUGGGAAUGCUGATT against PTGR1,inactive: 0
20,GCUCAACAUCUGUAGAUCATT against ITSN1,inactive: 0.00218
21,AGAGCAUAUUGAUGAGAGATT against MTHFD2,inactive: -0.146
22,CAUCCACACUGCAAUGAUATT against PILRB,inactive: 0.0351
23,GAAGUAAUCUGCACAGGGATT against LRRC52,inactive: 0.118
24,CCGCGGAACUGUUUGUGGATT against POLE4,inactive: -0.0404
25,CACUGUCAGUUGCAAUAUUTT against FGB,inactive: 0.481
26,GCAUCUAUACAGUCAAGGATT against EPDR1,inactive: 0.369
27,GCAGUGUGGUCAGUACCUUTT against RSAD1,inactive: -0.269
28,AGGCUGUUGUCGUCACAAATT against PRPS2,inactive: 0.389
29,GGUUAGAAGAGGUGUCUAATT against NUMB,inactive: -0.599
30,GGACACUACAAUAAGUAUATT against ATP6V1G3,inactive: 0.489
31,GUAUAGGUGAUAAUCGAGATT against LANCL1,inactive: 0
32,CGAAAACGAUUCCCUCUAATT against SOX30,inactive: -0.167
33,UUAUGUUUAUGGAAUGAAATT against SLC6A18,inactive: 0.148
34,AAGACCACAUGAUCCGUAATT against SCNN1B,inactive: 0.585
35,GAACUUCCCUUAAGAGUCATT against MUC4,inactive: 0.128
36,GGGUCACAGGUUGGAAAGATT against ACBD4,inactive: -0.363
37,GGAUUAUCUGCACUCCGAATT against STK25,inactive: -0.0703
38,CAAUCUAUUAAGAAAUGUUTT against RPE,inactive: 0.616
39,CUAUAGGAAUGUUGAAUAATT against WDR33,active: 3.27
40,GACCUCACCUAGAAAUUGATT against TNF,inactive: -0.138
41,CAACAACUGCUACCAAGAUTT against SLC6A4,active: 1.43
42,CAGCAUUCUUUAUCUCGUATT against FZD3,inactive: -0.0208
43,AGAUUGUCCUCAACUUCAATT against NRP2,inactive: 0.477
44,GCGUAUCUUUGAUAGUGAATT against NARS,inactive: -0.361

Additional entries

Row | Sequence | median seed-adjusted z-score
45 | CUCUAACAGUGCUCGAUUATT against COL14A1 | inactive: 0.19
46 | GGUUGUUAAUUAUGGAUCATT against SLC24A4 | inactive: 0.0358
47 | GACUAUCUGCAUUCGGAUATT against SIM1 | inactive: -0.0177
48 | CCGCAUAGCUCAUAGGAUATT against SMARCA2 | inactive: -0.458
49 | CCCUCACCAAAUACCCUGATT against KCTD1 | inactive: 0
50 | CCACUUCACAAGGCUAGAATT against PARP3 | inactive: -0.0383
51 | GGUCUAUCUUCAGGGAUUATT against SAA4 | inactive: 0.104
52 | GGACAUAAUGUAUUAUACUTT against DDHD1 | inactive: 0
53 | CCAUUUAAAUACAUCGUGATT against DYNLT1 | inactive: 0.764
54 | CAACGAGACCGGCUCCAUUTT against PAX1 | inactive: -0.111
55 | GCAUCGGGCUACCACCAAATT against PI4K2A | inactive: -0.486
56 | CAGUGUUCAUGGUCCUCCATT against CIDEC | inactive: 0.189
57 | UCAUCUUCUUUGACCCAGATT against HNF4A | inactive: -0.0274
58 | CUACCACAAUCAUCGAAAATT against FABP3 | inactive: -0.0786
59 | CCAUUUGAGAAACCUAAUATT against GCN5L2 | inactive: 0.013
60 | GCAUGAUCAUUGGAGGUAUTT against BACE1 | inactive: -0.537
61 | GAUUAACCAAGGUUGAGAATT against CNGA1 | active: -1.08
62 | GCCCAGUACUUUGUCUACATT against CNTN2 | inactive: 0
63 | CAACAACUCCAACCAGUUUTT against ITGB2 | inactive: -0.765
64 | GCAAUUCCUCAGAUAUCAATT against PTPN12 | inactive: -0.507
65 | UUCUCUCCCUAAUAAAAAUTT against AVPR2 | inactive: -0.262
66 | CGAUCAGCAACCUUACAAATT against CLIP1 | inactive: 0.853

Row | Sequence | median seed-adjusted z-score
67 | GAAAAUCUAUCAGAACAUUTT against RAB14 | inactive: -0.0567
68 | CAUUGAAGAUUGGUACAAATT against ZNF564 | inactive: 0.382
69 | GGGUUUAACUUUCAGAGAUTT against VN2R1P | inactive: -0.25
70 | GAAUUGAUCUGUACCAUGUTT against LALBA | inactive: -0.148
71 | CGCUCUAGCCUGACAUAUATT against ADAMTS3 | inactive: 0
72 | GCCCUACGUUUGUGAAGAATT against ZNF93 | inactive: 0.502
73 | GGAUGACAUUAGCAGGUAUTT against ERCC6 | inactive: 0.0421
74 | CCAUAUGAGUCCUAUGAGATT against SMURF1 | active: -1.4
75 | GGUUCCUAUUUUACCAGUUTT against AGBL2 | inactive: -0.796
76 | AGAAGAUCGGAAUUCUUUATT against RGPD5 | inactive: -0.0931
77 | AGUUCGUCCGCUUUCUUUUTT against P2RY4 | inactive: -0.389
78 | GGACAUUGGACUAACCCAATT against EFHB | inactive: 0.675
79 | GGAUUCAUGAGAUAGAGAATT against RAB19 | inactive: -0.0516
80 | GCUGAUUUCCGAAAAUCUATT against SMPD3 | inactive: -0.0115
81 | GGCCUAUCUCCUGCACAAATT against ARGFX | inactive: 0.273
82 | CGACGAGACCGGAUCAAUATT against HEY1 | inactive: -0.023
83 | CGAGGUCAUUGUGCAUGAATT against FLT4 | inactive: -0.861
84 | GGUUUUCGAGUCCUAAUUATT against PTEN | inactive: -0.408
85 | CGAACACCAUUCAAAGAUUTT against GRK7 | inactive: 0.288
86 | AGAGUUUGGUAUCUGCAAATT against ESM1 | inactive: 0.141
87 | CCUCUUUUGGAACAACAUATT against RAC2 | inactive: -0.596
88 | CAGCAUUUCCCUACACGUUTT against DPP6 | inactive: 0.0505

Row | Sequence | median seed-adjusted z-score
89 | UGAAGACCCAGAGAUGUAATT against PTN | inactive: -0.174
90 | GCAGGUCAAAGUCUGGUUUTT against HOXB2 | inactive: 0.271
91 | GGGAUACACUGAGACGUAATT against EFHA2 | inactive: 0.166
92 | CAGGUACCGUCAUCACAUUTT against PCDHA7 | inactive: 0.552
93 | GGAUUACCACCAUGACAAUTT against PAK7 | inactive: -0.202
94 | CGGCUGUGGUGAACCAGUATT against INHBB | inactive: -0.522
95 | GGGAUGUCGUCCAAGCAUATT against KCNK17 | inactive: -0.579
96 | CGACCACAUUGUCCGAUUUTT against AMHR2 | inactive: 0.557
97 | GAAAGUUCGAAUCAAUUUATT against TOX4 | inactive: 0
98 | AAUUCUCCAUUGAAAUUGATT against PITPNM1 | inactive: -0.203
99 | GAGGGACCGUGAAUGUCAATT against ADCY9 | inactive: 0.269
100 | GACUACGUUUGUUCGUAUATT against DSC1 | inactive: -0.151
101 | CGGAGAGCGAAGACGUGAATT against SLC18A3 | inactive: -0.392
102 | CAUCCUGCAGAGUAUCUAATT against EPHA5 | inactive: -0.00876
103 | AUUUGAAGCCUGUACAAAATT against GNG5 | inactive: -0.215
104 | CCAAGUUGAUGCUCUUAAATT against CCNE2 | inactive: 0.801
105 | AGAUCAUUGCUUUCAGUGATT against PRDX1 | inactive: 0.288
106 | GCGCAGAGUCUUUUACGAATT against RPS6KA3 | inactive: -0.0233
107 | GCCUCUGAAUGAGAUUGUATT against ATP13A2 | inactive: 0.461
108 | CUAUGGAGAUUCAACUGCATT against LAMC1 | inactive: 0.0473

— PubChem BioAssay AID1347426 (Functional Genomics Laboratory (NCATS/FGL), 2020)
